In paper PMC12802285, “PPE64 is a mycomembrane channel protein that functions in heme iron uptake and moonlights in biofilm formation in Mycobacterium tuberculosis” (mBio, 2025):
These are yes or no findings as the source states them, for the method shown. Some results given as binding are weak or reduced against the parent protein; the word gives no strength. Sequences can lack the tags named with a protein.

Legend:
[1] = biological target: PPE64 mycomembrane channel protein (recombinant, detergent-refolded) (Mycobacterium tuberculosis) (UniProt Q6MWW0); experiment: SEC; both purified
[2] = biological target: PPE64 mycomembrane channel protein (recombinant, detergent-refolded) (Mycobacterium tuberculosis) (UniProt Q6MWW0); experiment: native gel or EMSA; both purified

B1: PPE64 mycomembrane channel protein (recombinant, detergent-refolded) (natural protein)
chain: MAHFSVLPPEINSLRMYLGAGSAPMLQAAAAWDGLAAELGTAASSFSSVTTGLTGQAWQGPASAAMAAAAAPYAGFLTTASAQAQLAAGQAKAVASVFEAAKAAIVPPAAVAANREAFLALIRSNWLGLNAPWIAAVESLYEEYWAADVAAMTGYHAGASQAAAQLPLPAGLQQFLNTLPNLGIGNQGNANLGGGNTGSGNIGNGNKGSSNLGGGNIGNNNIGSGNRGSDNFGAGNVGTGNIGFGNQGPIDVNLLATPGQNNVGLGNIGNNNMGFGNTGDANTGGGNTGNGNIGGGNTGNNNFGFGNTGNNNIGIGLTGNNQMGINLAGLLNSGSGNIGIGNSGTNNIGLFNSGSGNIGVFNTGANTLVPGDLNNLGVGNSGNANIGFGNAGVLNTGFGNASILNTGLGNAGELNTGFGNAGFVNTGFDNSGNVNTGNGNSGNINTGSWNAGNVNTGFGIITDSGLTNSGFGNTGTDVSGFFNTPTGPLAVDVSGFFNTASGGTVINGQTSGIGNIGVPGTLFGSVRSGLNTGLFNMGTAISGLFNLRQLLG
notes: also called PPE64_(OPOE); PPE64DDM
binding [1]: binds | binding [2]: binds
